Results on 63 compounds are retold here after PubChem BioAssay AID638 (SRMLSC, 2007).

Among all 1,300 compounds or so, about 65 (5%) were called active.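 The calls were made as follows: active = growth inhibition reaching a set limit at one or more tested doses; inactive = the rest.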 This is one part of the list. Entries with a potency or affinity are not part of this list.

The nature of the test: wild-type E. coli BW25113 antibacterial activity – OD615, dose response (AID 638). To be noted: at 100 µM (top of the series) unless noted. The essentials:
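Material – E. coli BW25113 wild type · Medium – Kanamycin-supplemented LB broth · Doses – compound dilution series for dose-response · Incubation – 20 h compound exposure, 37 °C · Technique – optical density (absorbance) at 615 nm · Read-out basis – IC50 from 4-parameter logistic, bounds fixed 0–100% · Control set – chloramphenicol at 30 µM final as inhibition control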
In the case of `CCOC(=O)Cc1c(C)nc2c(-c3ccc(Cl)cc3)c[nH]n2c1=O`, the growth inhibition was inactive: -6.48%.

With `CCCCCn1c(CN2CCN(c3cccc(Cl)c3)CC2)nc2c1c(=O)n(C)c(=O)n2C`, the growth inhibition was inactive: 9.09%.

In the case of `O=C(Nc1ccc(N2CCN(C(=O)c3ccco3)CC2)c(Cl)c1)c1cccs1`, the growth inhibition is inactive: -1.45%.

As for `CCC(C)(C)n1nnnc1CN(Cc1ccc(Cl)cc1)Cc1ccco1`, the growth inhibition is inactive: -6.72%.

Consider `OCCN(CCO)c1nc(N2CCCCC2)c2nc(N(CCO)CCO)nc(N3CCCCC3)c2n1`, for which the growth inhibition is inactive: -1.01%.

Consider `O=C1c2ccccc2C(=O)N1CCC(c1ccc(F)cc1)c1ccco1` (stereo not drawn), for which the growth inhibition was inactive: 1.8%.

With `COc1ccc(-c2csc(N(CC3CCCO3)C(=O)c3ccco3)n2)cc1` (stereo not drawn), the growth inhibition is inactive: 1.43%.

`O=C(Nc1cnn(Cc2ccc(Cl)cc2Cl)c1)c1noc2c1CCCC2`: the growth inhibition is inactive: -2.89%.

Consider `COc1cc(-c2nnc(SCc3ccccc3Cl)o2)cc(OC)c1OC`, for which the growth inhibition is inactive: 7.37%.

In the case of `COc1cccc(-c2cc(C(=O)N3C(C)CCCC3C)no2)c1` (stereo not drawn), the growth inhibition was inactive: 1.45%.

For the compound `C(=C\c1ccccc1)/CSc1nnc(-c2ccccn2)n1Cc1ccco1`, the growth inhibition is inactive: 9.17%.

Take `Cc1ccc2[nH]c(=O)c(CN(Cc3ccc4c(c3)OCO4)Cc3nnnn3C3CCCC3)cc2c1`: the growth inhibition is inactive: 3.62%.

For `Cc1nc(N2CCN(Cc3ccccc3)CC2)nc2c1C(=O)CC(c1ccco1)C2` (stereo not drawn), the growth inhibition was inactive: 5.25%.

Regarding `CCNc1nc(NC(C)C)nc(N(C#N)CCOc2ccc(Cl)cc2Cl)n1`, the growth inhibition was inactive: -15.4%.

Turning to `O=C(CSc1nc2ccccc2o1)Nc1ccccc1N1CCCCCC1`, the growth inhibition was inactive: 1.71%.

For `CCN(CCNC(=O)C1CCN(Cc2nc(-c3cccc(Cl)c3)oc2C)CC1)c1ccccc1`, the growth inhibition is inactive: 9.5%.

Turning to `Cc1ccc2c3c1C1(C(=O)N3C(C)(C)CC2C)C(C#N)=C(N)Oc2cc(O)ccc21` (stereo not drawn), the growth inhibition was inactive: 15.4%.

As for `Cc1cccc(-n2ncc3c(N4CCC(C)CC4)ncnc32)c1`, the growth inhibition is inactive: -9.29%.

Regarding `COC(=O)c1sccc1NC(=O)c1cc2c(s1)CCCC2`, the growth inhibition is inactive: 2.79%.

As to `COc1nc(N(c2ccccc2)c2ccccc2)nc(-n2ccnc2)n1`, the growth inhibition is inactive: 12.7%.

Consider `O=C(O)CCCC(=O)N1CCc2cc(S(=O)(=O)N3CCc4ccccc43)ccc21`, for which the growth inhibition was inactive: -7.98%.

As for `COc1ccc(CN(Cc2cc3cc4c(cc3[nH]c2=O)OCO4)C(=O)NC2CCCCC2)cc1`, the growth inhibition was inactive: -8.18%.

As for `CN(C)c1ccc(-c2nn3c(-c4ccncc4)nnc3s2)cc1`, the growth inhibition was inactive: -6.08%.

For the compound `Cc1cc(C)c(C#N)c(N2CCN(CCOc3ccc(Cl)cc3)CC2)n1`, the growth inhibition is inactive: 7.86%.

Consider `CN(c1ccccc1C(=O)Nc1ccc(S(=O)(=O)N2CCCCC2)cc1)S(C)(=O)=O`, for which the growth inhibition is inactive: -1.44%.

For `Cc1oc(C(C)(C)C)cc1C(=O)Nc1ccc2c(c1)OCCO2`, the growth inhibition was inactive: -3%.

`Cc1ccc(SCC(=O)N(Cc2nc(-c3ccccc3)no2)C(C)C)cc1`: the growth inhibition is inactive: -2.8%.

`O=S(=O)(Nc1nc2ccccc2nc1NCc1ccco1)c1ccc(Cl)cc1`: the growth inhibition is inactive: 15.4%.

For `CCOC(=O)c1c(C)[nH]c(C)c1C(=O)Cn1nnc(-c2ccccc2C)n1`, the growth inhibition is inactive: 0.22%.

For `CCOC(=O)CSC1=C(C#N)C(c2ccco2)C(C(=O)Nc2cccc(C(F)(F)F)c2)=C(C)N1` (stereo not drawn), the growth inhibition was inactive: -10.2%.

Turning to `C=CCn1c(NC(C)c2cc(Cl)ccc2O)nc2ccccc21` (stereo not drawn), the growth inhibition was inactive: 13.7%.

Turning to `O=C(N1CCN(c2ccccc2F)CC1)C12CC3CC(CC(C3)C1)C2`, the growth inhibition is inactive: 1.32%.

Take `NC1=NC(c2cn(-c3ccccc3)nc2-c2cccs2)n2c(nc3ccccc32)N1` (stereo not drawn): the growth inhibition is inactive: 14.5%.

Take `COc1ccccc1Cc1nc(-c2ccc(Br)o2)no1`: the growth inhibition is inactive: 10.7%.

Regarding `Cc1cccc(S(=O)(=O)Nc2nc3ccccc3nc2NCc2ccco2)c1`, the growth inhibition is inactive: 4.61%.

As for `O=C(c1cc2ccccc2o1)N1CCN(c2ccccc2Cl)CC1`, the growth inhibition was inactive: -4.38%.

On to `Cc1cccc(Cn2c(=O)n(Cc3ccco3)c(=O)c3ccccc32)c1`, for which the growth inhibition was inactive: -5.41%.

`Brc1cccc(C2CC(c3ccccc3)n3nnnc3N2)c1` (stereo not drawn): the growth inhibition is inactive: -4.92%.

As for `Cc1nc2nc(COc3ccccc3)[nH]n2c(=O)c1Cc1ccccc1`, the growth inhibition is inactive: 11.3%.

Regarding `Cc1noc(C)c1COC(=O)c1cc(C)n(-c2ccccc2)c1C`, the growth inhibition is inactive: 3.3%.

As to `Fc1ccc(Br)cc1C1C=C(c2ccc(Br)s2)Nc2ncnn21` (stereo not drawn), the growth inhibition was inactive: -9.67%.

`COc1ccc(S(=O)(=O)Nc2ccc(S(=O)(=O)N3CCCCC3)cc2)cc1`: the growth inhibition was inactive: -5.18%.

As for `Cc1onc(-c2ccccc2)c1C(=O)Nc1nnc(COc2ccc(Cl)cc2)s1`, the growth inhibition was inactive: -9.06%.

Consider `Cc1cc(C)cc(Nc2cc(=O)n(C3CCCCC3)c(=O)[nH]2)c1`, for which the growth inhibition was inactive: 2.85%.

`CCOC(=O)c1ccccc1NC(=O)c1c(F)c(F)c(F)c(F)c1F`: the growth inhibition was inactive: -1.02%.

`CS(=O)(=O)N1CCc2cc(-c3csc(NC(=O)Cc4cccs4)n3)ccc21`: the growth inhibition was inactive: -0.66%.

In the case of `O=C(CCn1c(=O)oc2ccccc21)N1CCN(C(c2ccccc2)c2ccccc2)CC1`, the growth inhibition is inactive: 0.1%.

With `COc1ccc(OCC(O)Cn2c(=N)n(Cc3ccccc3)c3ccccc32)cc1` (stereo not drawn), the growth inhibition was inactive: 8.38%.

On to `Cc1ccc(C)c(S(=O)(=O)C(C#N)c2nc3ccccc3nc2N2CCOCC2)c1` (stereo not drawn), for which the growth inhibition was inactive: 4.2%.

`c1ccc(CN2CCN(c3nc(-c4ccccc4)nc(-n4ccnc4)n3)CC2)cc1`: the growth inhibition is inactive: -6.5%.

As for `Cc1cc(C(=O)CSc2nc3ccccc3o2)c(C)n1C1CC1`, the growth inhibition is inactive: 4.13%.

Regarding `CCOc1ccc(C(=O)C2CCN(CC(=O)Nc3ccccc3N3CCOCC3)CC2)cc1`, the growth inhibition was inactive: 8.78%.

As for `COc1ccc(-n2cnc3cc(NCc4cccs4)ccc32)cc1`, the growth inhibition is inactive: 7.38%.

`Clc1ccc(OCCn2ccnc2)c2ccccc12`: the growth inhibition is inactive: 12.7% [at 50 µM].

For the compound `O=C(Nc1nnc(-c2ccccc2Cl)o1)c1ccc(S(=O)(=O)N2CCCCCC2)cc1`, the growth inhibition is inactive: -6.86%.

As to `CN(C)S(=O)(=O)N(Cc1ccc(Br)cc1)c1ccccc1`, the growth inhibition is inactive: 4.47%.

For the compound `c1ccc(Cn2nnnc2C(c2cccs2)N2CCCCCC2)cc1` (stereo not drawn), the growth inhibition is inactive: 12.9%.

`Cc1n[nH]c(C)c1S(=O)(=O)N(CC(=O)Nc1ccc2c(c1)OCCO2)c1ccc(C(C)C)cc1`: the growth inhibition is inactive: -7.64%.

As for `c1ccc(CC2CCN(Cc3nc(-c4ccccc4)no3)CC2)cc1`, the growth inhibition is inactive: 1.02%.

Take `Cc1ccc(S(=O)(=O)N(Cc2ccccc2)Cc2ccco2)cc1`: the growth inhibition was inactive: -4.74%.

Take `O=C(COc1ccccc1Br)c1ccc(O)cc1O`: the growth inhibition was inactive: 13.1%.

On to `N#Cc1cn(Cc2cccc(Cl)c2)c2ccccc12`, for which the growth inhibition is inactive: 12.4%.

On to `CS(=O)(=O)N(Cc1nc2sc3c(c2c(=O)[nH]1)CCCC3)C1CCCCC1`, for which the growth inhibition was inactive: 17.3%.
